For at least one compound, name, drawing or mass did not settle the structure.
Columns and labels:
GBM12 cells = test: Alamarblue cell viability assay, GBM12; type: cell-based, human; settings: GBM12, 72 hours; ML385 1 μm, INH 1 μm, sulfasalazine 5 μm
glioma cells = test: Cell survival/viability assays in glioma cells (general statements); type: cell-based; settings: FIG. 5
GBM6 orthotopic model = test: GBM6 orthotopic model; type: in vivo, mice; settings: GBM6, PDX with unmethylated MGMT

| SMILES | sensitization of cells to erlotinib, cell viability (GBM12 cells) | synergy with EGFR inhibition in cell survival assays (glioma cells) | preventing tumor growth (GBM6 orthotopic model) |
| --- | --- | --- | --- |
| CCOc1ccccc1-n1c(C(C)N2CCN(C(=O)COc3ccc(Cl)cc3)CC2)nc2ccccc2c1=O (stereo not drawn) [Erastin] | sensitizes | synergizes with EGFR inhibition |  |
| Cn1nnc2c(C(N)=O)ncn2c1=O [TMZ, Temozolomide] |  |  | ineffective |

Reference: patent US20230130791A1, “A Combined Inhibition of EGFR and NRF2 in The Treatment of Malignant Glioma” (United States Government as represented by the Department …, priority 2020, published 2023)
